In article PMC8881069, “Thio- and selenosemicarbazones as antiprotozoal agents against Trypanosoma cruzi and Trichomonas vaginalis” (Journal of Enzyme Inhibition and Medicinal Chemistry, 2022):

tested on: Trypanosoma cruzi CL-B5 (DTU TcVI) epimastigotes; experiment: CL-B5 lacZ epimastigote susceptibility assay (CPRG); type: cell-based; conditions: SI = CC50 L929/IC50 CL lacZ epimastigotes

SMILES | SI CL-B5 epi
O=[N+]([O-])c1ccc(NC(=S)N/N=C/c2ccc(O)cc2)cc1 [Compound 59] | 0.39
O=[N+]([O-])c1ccc(/C=N/NC(=S)Nc2ccc([N+](=O)[O-])cc2)cc1 [Compound 62] | <0.21
COc1ccc(/C=N/NC(=S)Nc2ccccc2[N+](=O)[O-])cc1 [Compound 54] | >1.22
Oc1ccc(/C=N/NC(=S)Nc2ccc(F)cc2)cc1O [Compound 45] | 0.31
NNC(=S)Nc1ccc(I)cc1 [Compound 27] | 1.02
O=[N+]([O-])c1ccc(NC(=S)N/N=C/c2ccc(O)c(O)c2)cc1 [Compound 61] | 0.05
O=[N+]([O-])c1ccccc1NC(=S)N/N=C/c1ccc(O)cc1 [Compound 53] | 1.60
O=C(Cn1ccnc1[N+](=O)[O-])NCc1ccccc1 [Benznidazole, benznidazole, reference compound] | >10.11
COc1ccc(NC(=S)NN)cc1 [Compound 23] | >4.78
Cc1ccc(NC(=S)N/N=C/c2ccc(O)cc2)cc1 [Compound 39] | 1.54
NNC(=S)Nc1ccccc1[N+](=O)[O-] [Compound 28] | 4.76
NNC(=S)Nc1ccc(Cl)cc1 [Compound 25] | 1.53
NNC(=S)Nc1cccc2ccccc12 [Compound 31] | > 8.91
COc1ccc(/C=N/NC(=S)Nc2ccc(Cl)cc2)cc1 [Compound 46] | 1.63
NNC(=S)Nc1ccc([N+](=O)[O-])cc1 [Compound 30] | 0.33
O=[N+]([O-])c1cccc(NC(=S)N/N=C/c2ccc(O)cc2)c1 [Compound 56] | 0.78

SMILES | SI CL-B5 epi
O=[N+]([O-])c1cccc(NC(=S)N/N=C/c2ccc(O)c(O)c2)c1 [Compound 58] | 0.35
Oc1ccc(/C=N/NC(=S)Nc2ccc(I)cc2)cc1O [Compound 52] | 0.30
O=[N+]([O-])c1ccccc1NC(=S)N/N=C/c1ccc(O)c(O)c1 [Compound 55] | 0.51
NNC(=S)Nc1ccc(F)cc1 [Compound 24] | >4.35
Oc1ccc(/C=N/NC(=S)Nc2ccccc2)cc1 [Compound 36] | 0.65
COc1ccc(/C=N/NC(=S)Nc2ccccc2)cc1 [Compound 37] | >6.43
Oc1ccc(/C=N/NC(=S)Nc2ccc(I)cc2)cc1 [Compound 50] | 1.82
Oc1ccc(/C=N/NC(=S)Nc2ccc(Br)cc2)cc1O [Compound 49] | 0.16
Oc1ccc(/C=N/NC(=S)Nc2ccccc2)cc1O [Compound 38] | 2.95
Oc1ccc(/C=N/NC(=S)Nc2cccc3ccccc23)cc1O [Compound 65] | 0.41
Oc1ccc(/C=N/NC(=S)Nc2cccc3ccccc23)cc1 [Compound 63] | 0.58
NNC(=S)Nc1cccc([N+](=O)[O-])c1 [Compound 29] | 2.58
COc1ccc(NC(=S)N/N=C/c2ccc(O)cc2)cc1 [Compound 42] | 0.88
Cc1ccc(NC(=S)N/N=C/c2ccc(O)c(O)c2)cc1 [Compound 41] | 0.17
Oc1ccc(/C=N/NC(=S)Nc2ccc(Br)cc2)cc1 [Compound 47] | 1.56

tested on: Trypanosoma cruzi CL-B5 amastigotes; experiment: CL-B5 lacZ intracellular amastigote susceptibility assay (CPRG); type: cell-based; conditions: SI = CC50 L929/IC50 CL lacZ amastigotes

SMILES | SI CL-B5 ama
O=C(Cn1ccnc1[N+](=O)[O-])NCc1ccccc1 [Benznidazole, benznidazole, reference compound] | >544.68
NNC(=S)Nc1cccc2ccccc12 [Compound 31] | >6.45
COc1ccc(/C=N/NC(=S)Nc2ccc(OC)cc2)cc1 [Compound 43] | >6.56
COc1ccc(/C=N/NC(=S)Nc2cccc([N+](=O)[O-])c2)cc1 [Compound 57] | >11.49

tested on: Trichomonas vaginalis; experiment: Trichomonacidal in vitro assay (resazurin); type: cell-based; conditions: SI = CC50 Vero cells/IC50 T. vaginalis

SMILES | SI (T. vaginalis)
Oc1ccc(/C=N/NC(=[Se])Nc2ccc(Br)cc2)cc1O [Compound 74] | higher than 10
COc1ccc(/C=N/NC(=[Se])Nc2ccc(I)cc2)cc1 [Compound 75] | higher than 10
